Measurements reported in PubChem BioAssay AID1224830 (NIAID, 2016).
Here is an unselected part of about 18,000 reagents tested. About 2,900 of all reagents (16%) count as active. 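Calls are made per well; low scores hint the gene aids the LPS response, high scores that it dampens it.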 Unmarked entries are inactive. Repeated entries: four replicate wells of each siRNA pool.

Test: 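Genes whose knock-down alters the TNF-alpha reporter response to LPS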 (primary screen)
System: human THP-1 monocytic leukaemia cells, TNF dual-luciferase reporter clone, PMA-differentiated to macrophage-like cells
Knock-down reagent: siRNA pool against human genes, 50 nM
Timing: LPS for 4 h, given about 3 days after siRNA transfection
Challenge: bacterial LPS (TLR4 ligand), 10 ng/ml
Measurement: 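Ratio of firefly to renilla light, scaled to the plate median and expressed as a robust z-score per replicate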
Scale: TNF reporter robust z-score: higher = stronger TNF reporter response to LPS
Call rule: 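Each well counts as active if its z-score is over 2.8 or under -1.5; controls are left without a call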

target gene,TNF reporter robust z-score
CTC1 (CST telomere replication complex component 1),-1.21
CTC1 (CST telomere replication complex component 1),0.4
CTC1 (CST telomere replication complex component 1),0.15
CTC1 (CST telomere replication complex component 1),0.7
TUB (TUB bipartite transcription factor),0.59
TUB (TUB bipartite transcription factor),1.62
TUB (TUB bipartite transcription factor),0.82
TUB (TUB bipartite transcription factor),0.73
P2RX7 (purinergic receptor P2X 7),0.69
P2RX7 (purinergic receptor P2X 7),-0.13
P2RX7 (purinergic receptor P2X 7),0.39
P2RX7 (purinergic receptor P2X 7),-1.68 (active)
GABARAPL1 (GABA type A receptor associated protein like 1),0.74
GABARAPL1 (GABA type A receptor associated protein like 1),1.92
GABARAPL1 (GABA type A receptor associated protein like 1),4.03 (active)
GABARAPL1 (GABA type A receptor associated protein like 1),1.14
TBK1 (TANK binding kinase 1),-0.1
TBK1 (TANK binding kinase 1),0.78
TBK1 (TANK binding kinase 1),-0.11
TBK1 (TANK binding kinase 1),0.42
RETSAT (retinol saturase),-1.79 (active)
RETSAT (retinol saturase),-1.09
RETSAT (retinol saturase),-1.23
RETSAT (retinol saturase),-1.06
EGR4 (early growth response 4),0.37
EGR4 (early growth response 4),0.58
EGR4 (early growth response 4),0.25
EGR4 (early growth response 4),0.31
GADD45B (growth arrest and DNA damage inducible beta),1.81
GADD45B (growth arrest and DNA damage inducible beta),2.61
GADD45B (growth arrest and DNA damage inducible beta),1.43
GADD45B (growth arrest and DNA damage inducible beta),2.91 (active)
"ABRAXAS1 (abraxas 1, BRCA1 A complex subunit)",0.54
"ABRAXAS1 (abraxas 1, BRCA1 A complex subunit)",0.17
"ABRAXAS1 (abraxas 1, BRCA1 A complex subunit)",1.3
"ABRAXAS1 (abraxas 1, BRCA1 A complex subunit)",0.45
PROCA1 (protein interacting with cyclin A1),-0.8
PROCA1 (protein interacting with cyclin A1),-0.75
PROCA1 (protein interacting with cyclin A1),-1.09
PROCA1 (protein interacting with cyclin A1),9.33 (active)
C20orf144 (chromosome 20 open reading frame 144),0.69
C20orf144 (chromosome 20 open reading frame 144),2.18
C20orf144 (chromosome 20 open reading frame 144),-0.84
C20orf144 (chromosome 20 open reading frame 144),-1.41
TAFA1 (TAFA chemokine like family member 1),-0.16
TAFA1 (TAFA chemokine like family member 1),-0.88
TAFA1 (TAFA chemokine like family member 1),-0.59
TAFA1 (TAFA chemokine like family member 1),0.15
FAR1 (fatty acyl-CoA reductase 1),-0.92
FAR1 (fatty acyl-CoA reductase 1),-0.23
FAR1 (fatty acyl-CoA reductase 1),-0.74
FAR1 (fatty acyl-CoA reductase 1),-0.24
HBE1 (hemoglobin subunit epsilon 1),-0.16
HBE1 (hemoglobin subunit epsilon 1),0
HBE1 (hemoglobin subunit epsilon 1),-0.32
HBE1 (hemoglobin subunit epsilon 1),-0.22
PNMA8A (PNMA family member 8A),-0.32
PNMA8A (PNMA family member 8A),-0.34
PNMA8A (PNMA family member 8A),0.58
PNMA8A (PNMA family member 8A),-0.65
ZIC5 (Zic family zinc finger 5),0.47
ZIC5 (Zic family zinc finger 5),-0.94
ZIC5 (Zic family zinc finger 5),-1.38
ZIC5 (Zic family zinc finger 5),-0.38
POLR1G (RNA polymerase I subunit G),0.39
POLR1G (RNA polymerase I subunit G),1.11
POLR1G (RNA polymerase I subunit G),1.35
POLR1G (RNA polymerase I subunit G),2.59
C2CD2L (C2CD2 like),2.58
C2CD2L (C2CD2 like),2.17
C2CD2L (C2CD2 like),3.47 (active)
C2CD2L (C2CD2 like),2.62
MARCHF1 (membrane associated ring-CH-type finger 1),0.62
MARCHF1 (membrane associated ring-CH-type finger 1),-0.51
MARCHF1 (membrane associated ring-CH-type finger 1),1.47
MARCHF1 (membrane associated ring-CH-type finger 1),2.21
IFT70B (intraflagellar transport 70B),-0.57
IFT70B (intraflagellar transport 70B),-0.83
IFT70B (intraflagellar transport 70B),-0.11
IFT70B (intraflagellar transport 70B),-0.38
CARD11 (caspase recruitment domain family member 11),-1.45
CARD11 (caspase recruitment domain family member 11),-1.15
CARD11 (caspase recruitment domain family member 11),-1.28
CARD11 (caspase recruitment domain family member 11),-0.56
MAPKAPK5 (MAPK activated protein kinase 5),1.43
MAPKAPK5 (MAPK activated protein kinase 5),-0.94
MAPKAPK5 (MAPK activated protein kinase 5),0.19
MAPKAPK5 (MAPK activated protein kinase 5),1.96
MYL11 (myosin light chain 11),-1.2
MYL11 (myosin light chain 11),-0.22
MYL11 (myosin light chain 11),-0.91
MYL11 (myosin light chain 11),-0.67
IZUMO2 (IZUMO family member 2),0.68
IZUMO2 (IZUMO family member 2),0.98
IZUMO2 (IZUMO family member 2),2.17
IZUMO2 (IZUMO family member 2),0.23
DEFB124 (defensin beta 124),-0.3
DEFB124 (defensin beta 124),-0.37
DEFB124 (defensin beta 124),0.6
DEFB124 (defensin beta 124),0.43
SH2B3 (SH2B adaptor protein 3),0.42
SH2B3 (SH2B adaptor protein 3),0.04
SH2B3 (SH2B adaptor protein 3),-0.51
SH2B3 (SH2B adaptor protein 3),0.07
LMTK1 (lemur tail kinase 1),-0.18
LMTK1 (lemur tail kinase 1),0.2
LMTK1 (lemur tail kinase 1),0.33
LMTK1 (lemur tail kinase 1),-0.81
GPBP1 (GC-rich promoter binding protein 1),0.55
GPBP1 (GC-rich promoter binding protein 1),-0.16
GPBP1 (GC-rich promoter binding protein 1),-0.3
GPBP1 (GC-rich promoter binding protein 1),0.61

8 entries from above, set out differently.
{"target gene": "C2CD2L (C2CD2 like)", "TNF reporter robust z-score": 2.58}
{"target gene": "C2CD2L (C2CD2 like)", "TNF reporter robust z-score": 2.17}
{"target gene": "C2CD2L (C2CD2 like)", "TNF reporter robust z-score": "3.47 (active)"}
{"target gene": "C2CD2L (C2CD2 like)", "TNF reporter robust z-score": 2.62}
{"target gene": "MARCHF1 (membrane associated ring-CH-type finger 1)", "TNF reporter robust z-score": 0.62}
{"target gene": "MARCHF1 (membrane associated ring-CH-type finger 1)", "TNF reporter robust z-score": -0.51}
{"target gene": "MARCHF1 (membrane associated ring-CH-type finger 1)", "TNF reporter robust z-score": 1.47}
{"target gene": "MARCHF1 (membrane associated ring-CH-type finger 1)", "TNF reporter robust z-score": 2.21}
